Assay results published in PubChem BioAssay AID1508600 (Functional Genomics Laboratory (NCATS/FGL), 2020).
About 3,700 (7%) of roughly 53,000 sequences were called active.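 How the source made its calls: active means gene knockdowns whose robust z-score for IL-1 alpha signal is at least 2 or at most -2, so actives lie on both sides; inactive means the rest.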 The list shows a part of the results.

Assay: Components of the Cytosolic LPS Sensing Pathway: Gene Identification via Genome-wide siRNA Screen;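 further: robust z of the log signal after scaling to non-targeting control siRNA wells of the plate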
Details: RAW264.7 macrophages, IL-1a HTRF, actives lie on both sides, screened at 100 nM (by protocol), cells primed 5 h with Pam3CSK4 first
Procedure, shortened: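 RAW264.7 mouse macrophages reverse-transfected with single siRNAs (100 nM final) for 48h, primed with Pam3CSK4 for 5 hours, then transfected with LipidA for 24 hour. Supernatant IL-1a read by HTRF; values normalized to negative-control median, log-transformed robust z-scores.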

| Sequence | z-score |
| --- | --- |
| GGUGAUUAGCAAUCAUCAGTT against Zfp942 | inactive: -0.295 |
| CCGGUUCGUUCAGAAGGAGTT against Tmem163 | inactive: -0.731 |
| GCACGAUCUUCCAAACCCUTT against Dhh | inactive: -1.25 |
| GCUGCACCAUCAAUUCCCATT against Vpreb3 | inactive: -1.63 |
| GGGCGUGAUUUAUUUCUACTT against Mfsd6l | inactive: 1.45 |
| GGCGGAAAAAGGAUUUCAATT against Zfp595 | inactive: 1.84 |
| GGAGCAUCCUUCAACUUCUTT against Fcrl1 | inactive: 1.74 |
| GCAAAUCGACCACUUUCCGTT against Cacng2 | active: 4 |
| CGAUUUCCUUGGCACCAAUTT against Arhgap1 | inactive: -0.675 |
| GCACAAGUCAAGAGCUACCTT against Cdk20 | inactive: 0.639 |
| GGGUGACACUCUGAACGUATT against Arap1 | inactive: -0.952 |
| GCAACUACGUGUUCGUGUUTT against Rabac1 | inactive: 1.56 |
| GCUAUACGUGGUUUCCUCCTT against Adgrf1 | inactive: -0.98 |
| GCGAAUCUCCACAAGAUGGTT against 2300002M23Rik | inactive: -0.0187 |
| GGACGACUUCUACCUCAACTT against Fzr1 | inactive: 0.696 |
| CCUGAAAACACGUAUUGAATT against Igfbp4 | inactive: -1.01 |
| CCUGGAGAUUAGCUACGCCTT against Nostrin | inactive: -1.57 |
| GGAAGGUACCUACUCACUATT against Gm2a | inactive: 0.0412 |
| GCCGCCAUGACAGUAAAAGTT against Srsf4 | inactive: -1.07 |
| GGAAGAUGAAAGUUCCAUATT against Ankar | inactive: 1.17 |
| GCUGGACUAAUCGACAGCATT against Inava | inactive: -1.4 |
| GGUUCAAAAGUCGAGCGAATT against Nudt9 | inactive: -0.137 |

| Sequence | z-score |
| --- | --- |
| GGCAUGAACCAUUCAGUAATT against Ifnar1 | inactive: 0.677 |
| GGAGAUCUCAGAGAGUGAGTT against Atn1 | active: -2.52 |
| GGUUACUGGGUGAUAAGAATT against Mipep | inactive: -0.542 |
| GGCAGUGUACAUCUGGAUATT against Olfr611 | inactive: 1.85 |
| GGUGUUCUUGAAGUUUAUATT against Zfp157 | inactive: 0.579 |
| GCCUUUUGAUGCUUCCUCUTT against Rusf1 | inactive: -0.696 |
| GGUGAUCUUUUCUUUCUUUTT against Mkx | inactive: 0.986 |
| GCACAAUACUGUGAUCGAATT against Usp24 | inactive: -0.881 |
| GGGAAAGGUGUUCCAGUUATT against Chchd7 | inactive: -0.52 |
| CCACAAUCUGUUAACUUUGTT against Serpinb10 | inactive: -0.303 |
| GGCUGAUUUUCAGCUAAACTT against Yipf6 | inactive: 1.48 |
| GGACUGCACAGUUAUGGUGTT against Coro1a | inactive: -0.423 |
| GGCUACUUUCUGAAUUUUCTT against Ror2 | inactive: 0.0204 |
| GCUCUCCUUGCACUUUACATT against Syt4 | inactive: -0.461 |
| GGGUUCUUGGACAAACAGGTT against Eps15l1 | inactive: 0.347 |
| GGAUUUUGUUGACAAUGAUTT against Ncaph | inactive: -0.0936 |
| GGAGGAGGGAUCACAAGAATT against Mrpl23 | inactive: 0.376 |
| GGGACCUUUUCAGGACCUUTT against Ucp2 | inactive: -0.954 |
| GGAACUCAUUCUAUUGCACTT against Sowahd | inactive: 0.711 |
| GGCGGAUUCAGUCAGCUUUTT against Trim47 | inactive: 0.501 |
| GGAUCAAUGCACCUUCCAATT against Gpr85 | inactive: 1.61 |
| GUAUGCUGUGAGCCUUGUCTT against Sprr2b | inactive: -0.591 |

| Sequence | z-score |
| --- | --- |
| GGAUGUAAAAGAGACUGUGTT against Olfr1176 | inactive: -1.78 |
| GCGGCUUAAAGACCUGUUGTT against Sdhc | inactive: -0.571 |
| GGUAAUCCGAGCCAACAUUTT against Gpt2 | inactive: -0.177 |
| CCCACUGGUUAUAAAUGAATT against Cpped1 | inactive: 0.561 |
| CCCUUUCGUUCUUUACUUUTT against Olfr506 | inactive: -0.16 |
| CCUGAAGUUUGACUGUUUATT against Adam30 | inactive: 0.135 |
| GGAGGGAAUGAAAAGUCAATT against Stard7 | active: 2.09 |
| GGCAAUGGCACUGAAGUCATT against Olfr994 | inactive: -0.0376 |
| CGAAUCCAUGAUAUUGUACTT against Dynlrb2 | inactive: 0.0744 |
| CCAGAUGUGAUCUUAAAACTT against Zfp334 | inactive: -0.254 |
| GCCAGUCAGAUGUACAGUCTT against Pbx1 | active: 3.28 |
| CCUCAAGUUUGCCAUCAGGTT against Hps4 | inactive: 0.399 |
| GCUGGUUAAGUCCUAUCACTT against Klrk1 | inactive: 0.362 |
| GUAUUUCCACUUCAUUGUGTT against Dolk | inactive: -1.15 |
| GGCCUACCUAUAGAAAUGATT against Pgap1 | inactive: 0.208 |
| GCUCCUAUGGCAACAUCGUTT against Olfr303 | active: 2.11 |
| CCCGGGUCAUCAUUUUAAUTT against B830017H08Rik | inactive: -0.342 |
| CCACUGCUGUUAGGCUUGATT against Olfr810 | inactive: 0.694 |
| GGCAAGAGUGAAUUUAAGATT against Nt5e | inactive: -0.292 |
| GGAAAGAUUCCGAACAAUUTT against Rab8b | active: 2.12 |
| GCAUCAUCGAAUAAUCAUCTT against Egf | inactive: 0.213 |
| GAAGAGUCCAACAACCAAATT against Mrpl53 | inactive: -0.303 |

Part of the list above, with tabs.
Sequence	z-score
GGAGGGAAUGAAAAGUCAATT against Stard7	active: 2.09
GGCAAUGGCACUGAAGUCATT against Olfr994	inactive: -0.0376

Following part.

| Sequence | z-score |
| --- | --- |
| GGAUCUCCGCUCAUCAGAUTT against Slc14a2 | inactive: -1.05 |
| GGAGAAAUGCCAUUGCGUCTT against Wnt3 | inactive: 0.169 |
| GGCUCUCUUUAGAACAGACTT against Rad17 | inactive: 0.479 |
| CCAACAAUCAUGGUUAAACTT against Cd300ld | inactive: 0.749 |
| CGGUCCUCAGAACAUAUACTT against Rnasek | inactive: -1.43 |
| GCAAAUGACUUGCCCAAAUTT against Zfp639 | inactive: 0.47 |
| CCCAGAAGGAUCUGCUCUUTT against Defa20 | active: -2.17 |
| GGCUAGCACCAAAUUCUUGTT against Fbxo40 | inactive: 0.985 |
| CGUGCAGAUCAACGAUAUUTT against Rps5 | inactive: 0.111 |
| UUUUGCUACUAUCUUGAAGTT against Ugt1a10 | inactive: -0.416 |
| GGACAUUCUGCUACACAAGTT against Bsx | active: 2.63 |
| GGAACAGCUGUGAUUAACGTT against Prdx4 | inactive: 0.343 |
| CCUUGAAAUACUGAGUGACTT against Tsen2 | inactive: -1.12 |
| GGCUGAACAGCAAAAAAAATT against Foxn4 | inactive: 0.289 |
| UGAAGUCUAAUCAGAGCACTT against Olfr50 | inactive: 0.723 |
| CAGGCUGGUUACUUUGGCUTT against Lhfpl5 | inactive: -0.246 |
| GGAACUCUGUGGGUGAGAATT against Dock8 | inactive: -1.46 |
| GGUUUGGUUACAAAAAUACTT against Mmp16 | inactive: -0.626 |
| GUAACUCGCUUCUUGGUGGTT against Slc22a15 | inactive: 0.464 |
| GGUUAUUUCCCUGUUUUCATT against Olfr532 | inactive: 1.5 |
| GGGACUUUGGAUUCAAGCGTT against C4a | inactive: 0.872 |
| CGGCUCUUCUUAAAAUUGATT against Rpl35a | inactive: 0.61 |

| Sequence | z-score |
| --- | --- |
| CGACUUUGGACAAAAAUUGTT against Kdm2a | inactive: 0.638 |
| CGAGGACUACUAGAAGAAATT against Trpc1 | active: 2.36 |
| GCCAAUUUGAAUGGGAUGUTT against Magohb | active: -2.25 |
| UUAACUACAAUCCAUCACUTT against Rcan2 | inactive: -0.284 |
| GCACACACAUCAGUAAAUUTT against Olfr1444 | inactive: -0.817 |
| CGAAUGUUGAAUCUUCUUGTT against Ift81 | inactive: 0.748 |
| GGGAAACAAAUUGUUUGCATT against Dnaaf4 | inactive: -0.461 |
| CCAAACCAGCACAUUGAAGTT against Il12a | inactive: -0.323 |
| GGGAAGACGACUGUAAUUGTT against Mrps18a | inactive: 0.517 |
| GGAACUGGAGUUUCUUAGCTT against Anp32e | inactive: 0.0536 |
| GGUUCACAGAAAUGGAUGATT against Zfp507 | active: -2.91 |
| GGUCCUAAAAUUUCCUCUUTT against Prdx3 | inactive: 0.854 |
| GGAGGAACUGGAUUCUUACTT against Eps8l3 | inactive: -0.348 |
| GGUCUUGGUGAGCAUGAGATT against Lnpep | inactive: -1.08 |
| CCCUGAAUAUAUGAAGAGCTT against Rhbdl1 | inactive: 0.113 |
| GGCCUACGCAUCUUCUACCTT against Mest | inactive: -0.658 |
| CCUCUUCCUGCUAAUCAUUTT against Olfr599 | inactive: -1.87 |
| CCUGUGAAAAUUUUAGUGCTT against Pms1 | inactive: -0.208 |
| GGGUUGUCCGGGAGAAAGATT against Wscd2 | inactive: 0.635 |

Retrieved one by one from the list above (four):

| Sequence | z-score |
| --- | --- |
| CGACUUUGGACAAAAAUUGTT against Kdm2a | inactive: 0.638 |
| GGUUCACAGAAAUGGAUGATT against Zfp507 | active: -2.91 |
| GGGUUGUCCGGGAGAAAGATT against Wscd2 | inactive: 0.635 |
| GGGAAACAAAUUGUUUGCATT against Dnaaf4 | inactive: -0.461 |
